Experimental data: PubChem BioAssay AID1053208 (Peter MacCallum Cancer Centre, 2014)

Aim: 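Genes whose silencing cuts survival of bone tumour cells only with doxorubicin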 (primary screen)
Cell system: mouse osteosarcoma cells, early-passage culture from an engineered mouse model of fibroblastic bone tumour
Reagents: siRNA pool against mouse genes, 40 nM
Time to read-out: about 120 h (48 h before drug, then 72 h with drug)
Treatment: doxorubicin 100 nM for 72 h, roughly 30-40% inhibitory dose
Measurement: 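Viability read as ATP luminescence after 72 h of 100 nM doxorubicin or none, duplicate wells averaged, scaled to non-targeting siRNA, then expressed as robust z-scores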
Scale: viability z-score with doxorubicin: higher = more viable cells under doxorubicin; viability z-score without drug: higher = more viable cells with knock-down alone
Rule for the call: 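Called active if knock-down leaves viability unchanged without drug (z within -2 to 2) but lowers it with doxorubicin (z at or under -2)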
Shown is one part, drawn at random, of about 17,000 reagents. 788 of them (4.7%) were called active. 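Calls rest on z-score classes alone; an extra cut-off of viability at most 70% of control was not applied to them.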 Not all columns of the deposit are shown.

Zbed4 (zinc finger, BED type containing 4) → combined z-score class: no change with or without drug; viability z-score with doxorubicin: 0.22; viability z-score without drug: -0.84; Outcome: inactive
Barx1 (BarH-like homeobox 1) → combined z-score class: low cell count with doxorubicin only; viability z-score with doxorubicin: -2.25; viability z-score without drug: 0.17; Outcome: active
Atp2a3 (ATPase, Ca++ transporting, ubiquitous) → combined z-score class: no change with or without drug; viability z-score with doxorubicin: -0.9; viability z-score without drug: -0.84; Outcome: inactive
Aldh3b1 (aldehyde dehydrogenase 3 family, member B1) → combined z-score class: no change with or without drug; viability z-score with doxorubicin: -0.45; viability z-score without drug: -0.17; Outcome: inactive
Cd209d (CD209d antigen) → combined z-score class: no change with or without drug; viability z-score with doxorubicin: 0.45; viability z-score without drug: 1.85; Outcome: inactive
Acad8 (acyl-Coenzyme A dehydrogenase family, member 8) → combined z-score class: no change with or without drug; viability z-score with doxorubicin: -1.12; viability z-score without drug: -1.18; Outcome: inactive
Gtf3c1 (general transcription factor III C 1) → combined z-score class: no change with or without drug; viability z-score with doxorubicin: 0.9; viability z-score without drug: 0.67; Outcome: inactive
4921509C19Rik (RIKEN cDNA 4921509C19 gene) → combined z-score class: no change with or without drug; viability z-score with doxorubicin: 0; viability z-score without drug: 1.01; Outcome: inactive
Eif2b5 → combined z-score class: no change with or without drug; viability z-score with doxorubicin: -1.8; viability z-score without drug: -1.52; Outcome: inactive
Eeig1 (estrogen-induced osteoclastogenesis regulator 1) → combined z-score class: no change with or without drug; viability z-score with doxorubicin: 1.01; viability z-score without drug: -0.84; Outcome: inactive
Wnt9b (WNT family member 9B) → combined z-score class: no change with or without drug; viability z-score with doxorubicin: 0.34; viability z-score without drug: -0.17; Outcome: inactive
Rpl3l (ribosomal protein L3-like) → combined z-score class: no change with or without drug; viability z-score with doxorubicin: 0.11; viability z-score without drug: 0.67; Outcome: inactive
Or6b3 (olfactory receptor family 6 subfamily B member 3) → combined z-score class: no change with or without drug; viability z-score with doxorubicin: -1.57; viability z-score without drug: -1.35; Outcome: inactive
Swt1 (SWT1 RNA endoribonuclease homolog (S. cerevisiae)) → combined z-score class: no change with or without drug; viability z-score with doxorubicin: 0.56; viability z-score without drug: 0.51; Outcome: inactive
Bckdhb (branched chain ketoacid dehydrogenase E1, beta polypeptide) → combined z-score class: no change with or without drug; viability z-score with doxorubicin: -0.22; viability z-score without drug: -0.51; Outcome: inactive
Entpd2 (ectonucleoside triphosphate diphosphohydrolase 2) → combined z-score class: no change with or without drug; viability z-score with doxorubicin: 1.12; viability z-score without drug: 0.51; Outcome: inactive
Xpo4 (exportin 4) → combined z-score class: no change with or without drug; viability z-score with doxorubicin: 0.45; viability z-score without drug: -0.67; Outcome: inactive
Zxdc (ZXD family zinc finger C) → combined z-score class: no change with or without drug; viability z-score with doxorubicin: 0.45; viability z-score without drug: -0.17; Outcome: inactive
Zfp472 (zinc finger protein 472) → combined z-score class: no change with or without drug; viability z-score with doxorubicin: 0.34; viability z-score without drug: -0.17; Outcome: inactive
Exosc10 (exosome component 10) → combined z-score class: low cell count without drug only; viability z-score with doxorubicin: -1.12; viability z-score without drug: -2.19; Outcome: inactive
Mtfmt (mitochondrial methionyl-tRNA formyltransferase) → combined z-score class: no change with or without drug; viability z-score with doxorubicin: 1.12; viability z-score without drug: 0.51; Outcome: inactive
Pcdh8 (protocadherin 8) → combined z-score class: no change with or without drug; viability z-score with doxorubicin: 0.22; viability z-score without drug: 0.51; Outcome: inactive
Ybey (ybeY metallopeptidase) → combined z-score class: no change with or without drug; viability z-score with doxorubicin: -1.46; viability z-score without drug: -1.18; Outcome: inactive
Zfp959 (zinc finger protein 959) → combined z-score class: no change with or without drug; viability z-score with doxorubicin: 0.56; viability z-score without drug: -0.34; Outcome: inactive
Metap1d (methionyl aminopeptidase type 1D (mitochondrial)) → combined z-score class: low cell count with doxorubicin only; viability z-score with doxorubicin: -2.25; viability z-score without drug: -0.51; Outcome: active
Ppp1r11 (protein phosphatase 1, regulatory inhibitor subunit 11) → combined z-score class: no change with or without drug; viability z-score with doxorubicin: 0.56; viability z-score without drug: -0.84; Outcome: inactive
Ntf5 (neurotrophin 5) → combined z-score class: no change with or without drug; viability z-score with doxorubicin: -0.45; viability z-score without drug: -1.69; Outcome: inactive
Traf2 (TNF receptor-associated factor 2) → combined z-score class: no change with or without drug; viability z-score with doxorubicin: 0; viability z-score without drug: -0.67; Outcome: inactive

Ordered by “viability z-score with doxorubicin” (ascending): some entries from above
Metap1d (methionyl aminopeptidase type 1D (mitochondrial)) → combined z-score class: low cell count with doxorubicin only; viability z-score with doxorubicin: -2.25; viability z-score without drug: -0.51; Outcome: active
Ntf5 (neurotrophin 5) → combined z-score class: no change with or without drug; viability z-score with doxorubicin: -0.45; viability z-score without drug: -1.69; Outcome: inactive
Traf2 (TNF receptor-associated factor 2) → combined z-score class: no change with or without drug; viability z-score with doxorubicin: 0; viability z-score without drug: -0.67; Outcome: inactive
Zfp959 (zinc finger protein 959) → combined z-score class: no change with or without drug; viability z-score with doxorubicin: 0.56; viability z-score without drug: -0.34; Outcome: inactive
Ppp1r11 (protein phosphatase 1, regulatory inhibitor subunit 11) → combined z-score class: no change with or without drug; viability z-score with doxorubicin: 0.56; viability z-score without drug: -0.84; Outcome: inactive
